From the supplement of paper PMC10849652
This is one part of the list.

Protein sequences, listed by entry. Tags and fused reporters are not part of them. Lines headed by an entry give the natural chain unless they say otherwise; changes in a name come on top.
UniProt Q15599: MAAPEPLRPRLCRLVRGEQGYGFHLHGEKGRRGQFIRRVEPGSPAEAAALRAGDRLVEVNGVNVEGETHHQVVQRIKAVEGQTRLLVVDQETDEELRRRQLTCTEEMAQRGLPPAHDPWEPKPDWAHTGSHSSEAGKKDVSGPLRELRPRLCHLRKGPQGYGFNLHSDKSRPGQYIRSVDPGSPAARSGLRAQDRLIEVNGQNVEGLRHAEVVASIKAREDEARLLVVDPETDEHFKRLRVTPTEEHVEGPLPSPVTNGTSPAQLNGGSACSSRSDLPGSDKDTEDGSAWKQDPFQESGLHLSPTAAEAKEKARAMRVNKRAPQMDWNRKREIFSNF
UniProt Q8WVK2: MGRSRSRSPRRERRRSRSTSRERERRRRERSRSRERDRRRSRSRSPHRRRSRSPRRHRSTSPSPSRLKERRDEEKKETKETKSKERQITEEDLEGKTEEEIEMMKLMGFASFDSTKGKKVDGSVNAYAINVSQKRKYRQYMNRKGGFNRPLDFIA
UniProt Q92536: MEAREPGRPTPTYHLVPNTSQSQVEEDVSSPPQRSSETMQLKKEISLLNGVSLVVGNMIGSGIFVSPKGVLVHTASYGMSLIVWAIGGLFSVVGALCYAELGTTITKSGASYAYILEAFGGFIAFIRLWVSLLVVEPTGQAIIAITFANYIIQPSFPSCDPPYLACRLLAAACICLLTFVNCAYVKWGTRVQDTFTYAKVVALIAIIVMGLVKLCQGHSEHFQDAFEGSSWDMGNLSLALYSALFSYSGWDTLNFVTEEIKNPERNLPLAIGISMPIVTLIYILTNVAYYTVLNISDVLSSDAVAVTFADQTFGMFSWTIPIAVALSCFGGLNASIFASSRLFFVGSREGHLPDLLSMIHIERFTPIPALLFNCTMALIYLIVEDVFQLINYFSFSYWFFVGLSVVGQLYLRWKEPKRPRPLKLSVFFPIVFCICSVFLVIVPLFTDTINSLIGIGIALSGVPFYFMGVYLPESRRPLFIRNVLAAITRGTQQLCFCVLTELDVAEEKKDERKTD
UniProt Q8IY18: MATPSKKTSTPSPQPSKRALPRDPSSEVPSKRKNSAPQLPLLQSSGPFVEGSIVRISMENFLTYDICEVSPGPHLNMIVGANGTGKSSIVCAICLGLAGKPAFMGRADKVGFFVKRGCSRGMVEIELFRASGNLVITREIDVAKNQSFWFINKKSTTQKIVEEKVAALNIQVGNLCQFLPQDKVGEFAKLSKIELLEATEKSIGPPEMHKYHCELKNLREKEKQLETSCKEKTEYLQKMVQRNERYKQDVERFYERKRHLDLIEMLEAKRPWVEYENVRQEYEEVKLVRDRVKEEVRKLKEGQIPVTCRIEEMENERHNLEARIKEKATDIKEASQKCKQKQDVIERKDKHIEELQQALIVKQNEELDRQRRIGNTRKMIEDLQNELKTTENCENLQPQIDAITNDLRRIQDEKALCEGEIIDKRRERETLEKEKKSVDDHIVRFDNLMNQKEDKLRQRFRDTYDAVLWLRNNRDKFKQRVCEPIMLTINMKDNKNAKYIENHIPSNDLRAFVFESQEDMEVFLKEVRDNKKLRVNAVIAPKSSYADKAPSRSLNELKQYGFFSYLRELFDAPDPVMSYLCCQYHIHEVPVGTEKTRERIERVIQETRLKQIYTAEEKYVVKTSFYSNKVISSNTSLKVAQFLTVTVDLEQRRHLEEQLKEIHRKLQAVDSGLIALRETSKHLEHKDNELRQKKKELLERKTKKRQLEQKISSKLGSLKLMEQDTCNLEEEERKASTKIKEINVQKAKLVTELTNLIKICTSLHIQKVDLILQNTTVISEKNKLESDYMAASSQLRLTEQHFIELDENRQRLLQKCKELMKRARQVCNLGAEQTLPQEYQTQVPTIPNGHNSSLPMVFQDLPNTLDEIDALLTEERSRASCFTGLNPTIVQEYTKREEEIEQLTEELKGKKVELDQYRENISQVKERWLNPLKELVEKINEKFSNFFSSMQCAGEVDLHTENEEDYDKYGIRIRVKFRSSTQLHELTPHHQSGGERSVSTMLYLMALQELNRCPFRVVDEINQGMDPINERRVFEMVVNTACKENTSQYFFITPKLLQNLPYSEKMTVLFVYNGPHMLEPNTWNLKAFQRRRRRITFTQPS
UniProt Q9NRG4: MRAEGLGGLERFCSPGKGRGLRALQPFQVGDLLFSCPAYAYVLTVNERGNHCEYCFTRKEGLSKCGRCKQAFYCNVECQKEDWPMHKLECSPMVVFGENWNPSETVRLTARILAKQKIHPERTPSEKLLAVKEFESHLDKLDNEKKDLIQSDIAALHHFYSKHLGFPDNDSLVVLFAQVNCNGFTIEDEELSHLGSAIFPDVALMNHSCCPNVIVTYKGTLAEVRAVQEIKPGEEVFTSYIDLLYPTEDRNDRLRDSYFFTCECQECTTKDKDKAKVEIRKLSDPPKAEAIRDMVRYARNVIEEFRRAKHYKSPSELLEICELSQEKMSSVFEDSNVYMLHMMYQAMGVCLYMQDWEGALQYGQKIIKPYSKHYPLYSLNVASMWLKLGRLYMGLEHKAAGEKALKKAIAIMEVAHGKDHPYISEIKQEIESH
UniProt P09661: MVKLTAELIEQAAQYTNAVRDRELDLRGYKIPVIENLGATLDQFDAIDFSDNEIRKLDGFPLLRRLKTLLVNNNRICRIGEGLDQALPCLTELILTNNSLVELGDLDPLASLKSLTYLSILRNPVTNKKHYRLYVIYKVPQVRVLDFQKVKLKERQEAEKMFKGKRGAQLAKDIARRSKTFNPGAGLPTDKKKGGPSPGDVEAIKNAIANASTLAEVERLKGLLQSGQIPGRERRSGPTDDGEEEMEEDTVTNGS
UniProt Q99717: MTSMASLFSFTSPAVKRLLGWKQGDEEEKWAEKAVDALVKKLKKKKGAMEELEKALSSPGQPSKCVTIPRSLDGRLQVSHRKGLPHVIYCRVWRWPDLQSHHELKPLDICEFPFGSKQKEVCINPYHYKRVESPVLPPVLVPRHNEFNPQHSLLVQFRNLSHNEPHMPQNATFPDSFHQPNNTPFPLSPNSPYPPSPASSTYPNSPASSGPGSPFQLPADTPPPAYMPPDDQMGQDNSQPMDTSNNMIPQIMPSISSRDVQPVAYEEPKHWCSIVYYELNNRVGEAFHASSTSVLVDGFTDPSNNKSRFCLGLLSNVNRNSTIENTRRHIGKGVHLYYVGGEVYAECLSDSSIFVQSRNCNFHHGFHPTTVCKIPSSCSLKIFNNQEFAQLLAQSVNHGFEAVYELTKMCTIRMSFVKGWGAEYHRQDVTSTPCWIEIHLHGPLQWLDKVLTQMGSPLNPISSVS
UniProt P62316, whole entry, looked up: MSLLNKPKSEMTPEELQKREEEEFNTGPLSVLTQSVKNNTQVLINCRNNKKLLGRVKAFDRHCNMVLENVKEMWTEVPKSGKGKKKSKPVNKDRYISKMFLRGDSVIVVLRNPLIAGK
UniProt Q8ND04: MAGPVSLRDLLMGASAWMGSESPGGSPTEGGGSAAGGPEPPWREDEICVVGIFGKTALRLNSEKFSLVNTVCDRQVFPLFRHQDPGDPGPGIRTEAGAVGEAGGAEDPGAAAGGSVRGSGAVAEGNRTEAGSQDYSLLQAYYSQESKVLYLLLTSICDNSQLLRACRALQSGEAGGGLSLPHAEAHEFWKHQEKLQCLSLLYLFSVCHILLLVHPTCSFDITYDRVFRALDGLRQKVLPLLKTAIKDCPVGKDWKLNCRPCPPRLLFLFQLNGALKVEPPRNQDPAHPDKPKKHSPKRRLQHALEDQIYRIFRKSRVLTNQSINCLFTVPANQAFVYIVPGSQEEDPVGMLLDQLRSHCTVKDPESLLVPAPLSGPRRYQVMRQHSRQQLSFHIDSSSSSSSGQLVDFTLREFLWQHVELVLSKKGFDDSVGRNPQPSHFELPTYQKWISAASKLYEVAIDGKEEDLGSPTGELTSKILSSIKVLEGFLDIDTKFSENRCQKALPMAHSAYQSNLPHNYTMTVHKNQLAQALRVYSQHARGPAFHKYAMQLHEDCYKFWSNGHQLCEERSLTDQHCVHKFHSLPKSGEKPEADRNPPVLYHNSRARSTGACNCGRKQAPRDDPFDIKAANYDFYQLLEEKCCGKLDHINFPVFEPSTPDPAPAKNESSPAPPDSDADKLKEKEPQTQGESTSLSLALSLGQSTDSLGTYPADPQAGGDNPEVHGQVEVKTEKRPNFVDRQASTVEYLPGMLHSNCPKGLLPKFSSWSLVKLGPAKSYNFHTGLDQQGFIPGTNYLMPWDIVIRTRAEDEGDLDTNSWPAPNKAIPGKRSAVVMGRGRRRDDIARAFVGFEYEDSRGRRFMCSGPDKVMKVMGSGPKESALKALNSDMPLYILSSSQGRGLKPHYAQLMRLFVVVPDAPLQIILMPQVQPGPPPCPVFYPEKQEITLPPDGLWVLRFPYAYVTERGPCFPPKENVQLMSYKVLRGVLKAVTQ
UniProt O60906: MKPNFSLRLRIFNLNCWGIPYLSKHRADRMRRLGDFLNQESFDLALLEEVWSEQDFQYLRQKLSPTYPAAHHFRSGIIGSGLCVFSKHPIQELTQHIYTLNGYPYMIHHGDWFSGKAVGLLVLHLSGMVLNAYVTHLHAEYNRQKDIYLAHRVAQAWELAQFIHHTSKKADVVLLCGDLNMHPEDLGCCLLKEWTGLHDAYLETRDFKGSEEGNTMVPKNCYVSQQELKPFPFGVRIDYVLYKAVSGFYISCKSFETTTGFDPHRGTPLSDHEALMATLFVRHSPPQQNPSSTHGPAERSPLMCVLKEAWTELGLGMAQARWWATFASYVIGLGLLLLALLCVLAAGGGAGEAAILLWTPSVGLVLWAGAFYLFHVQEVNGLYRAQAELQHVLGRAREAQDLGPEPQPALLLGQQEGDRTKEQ
UniProt Q96DI7: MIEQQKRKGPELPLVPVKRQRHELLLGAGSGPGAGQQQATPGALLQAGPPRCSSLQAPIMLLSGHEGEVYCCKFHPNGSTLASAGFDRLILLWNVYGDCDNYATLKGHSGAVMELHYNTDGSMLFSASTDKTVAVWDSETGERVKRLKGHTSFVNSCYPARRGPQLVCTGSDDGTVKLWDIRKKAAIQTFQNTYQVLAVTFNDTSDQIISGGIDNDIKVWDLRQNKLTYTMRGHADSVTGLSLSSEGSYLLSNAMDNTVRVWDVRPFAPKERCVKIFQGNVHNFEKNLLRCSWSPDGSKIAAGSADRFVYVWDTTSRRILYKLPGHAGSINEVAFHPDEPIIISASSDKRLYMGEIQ
UniProt O60493, whole entry, looked up: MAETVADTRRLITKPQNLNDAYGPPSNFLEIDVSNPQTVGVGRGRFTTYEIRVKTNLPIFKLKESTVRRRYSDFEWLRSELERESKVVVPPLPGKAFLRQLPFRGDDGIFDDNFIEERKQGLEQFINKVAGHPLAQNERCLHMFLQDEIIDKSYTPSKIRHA
UniProt Q96H20: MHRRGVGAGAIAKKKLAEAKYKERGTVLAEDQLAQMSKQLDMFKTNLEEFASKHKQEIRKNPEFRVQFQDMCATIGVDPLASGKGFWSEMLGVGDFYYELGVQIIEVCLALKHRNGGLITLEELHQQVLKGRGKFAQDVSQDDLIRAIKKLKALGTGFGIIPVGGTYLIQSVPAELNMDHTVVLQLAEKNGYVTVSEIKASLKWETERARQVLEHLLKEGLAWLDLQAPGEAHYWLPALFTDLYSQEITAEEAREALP
UniProt Q02447: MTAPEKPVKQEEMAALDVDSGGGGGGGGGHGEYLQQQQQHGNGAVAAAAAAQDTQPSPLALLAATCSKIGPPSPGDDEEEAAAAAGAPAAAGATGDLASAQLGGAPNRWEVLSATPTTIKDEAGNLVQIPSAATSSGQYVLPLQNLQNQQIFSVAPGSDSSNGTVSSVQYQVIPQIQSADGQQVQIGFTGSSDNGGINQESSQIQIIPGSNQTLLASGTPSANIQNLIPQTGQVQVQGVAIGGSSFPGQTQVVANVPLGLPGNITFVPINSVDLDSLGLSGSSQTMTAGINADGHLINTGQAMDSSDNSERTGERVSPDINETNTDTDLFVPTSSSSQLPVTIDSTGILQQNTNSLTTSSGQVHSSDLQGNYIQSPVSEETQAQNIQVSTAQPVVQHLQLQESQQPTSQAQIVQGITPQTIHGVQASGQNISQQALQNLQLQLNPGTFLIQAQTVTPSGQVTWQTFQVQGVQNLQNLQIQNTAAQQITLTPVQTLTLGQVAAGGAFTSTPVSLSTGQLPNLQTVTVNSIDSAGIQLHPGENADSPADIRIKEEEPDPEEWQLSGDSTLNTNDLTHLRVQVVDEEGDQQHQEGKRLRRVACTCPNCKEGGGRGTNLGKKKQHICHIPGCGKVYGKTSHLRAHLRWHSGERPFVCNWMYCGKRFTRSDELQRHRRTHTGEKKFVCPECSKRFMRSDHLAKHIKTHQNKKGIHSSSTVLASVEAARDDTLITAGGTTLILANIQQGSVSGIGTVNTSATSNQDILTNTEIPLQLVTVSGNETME

What was measured:
Experiment in all cases: log2 fold change, soluble protein after heating vs DMSO (PISA); higher = thermal stabilisation; K562 cells, 10 uM, 30 min; active = over 0.2 and 3.5 SD of the protein, either way, in both replicates (recomputed)
erlotinib = compound: C#Cc1cccc(Nc2ncnc3cc(OCCOC)c(OCCOC)cc23)c1 [erlotinib]
Procedure, shortened: (§1)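 Values are thermal stability changes relative to control samples and are taken from duplicates. They are stated as log2 fold changes. Before quantification by TMTpro 16plex LC-MS/MS with equalised channel sums, K562 cells at 2×10^6 cells/mL were treated with 10 μM compound for 30 min, heated in aliquots for 3 min across 48°C-58°C, pooled, extracted in PBS with 0.5% NP-40 at 4°C, and centrifuged at 21,000xg for 90 min to give the soluble supernatant.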

[1] = compound: C/C(=N\NC(=O)C1=CC(=CC=C1)S(=O)(=O)N2CCOCC2)/C3=C(C=CC(=C3)Cl)O
Procedure, shortened: as §1

[2] = compound: C1=CC(=C(C=C1Cl)C2=NC3=NC=CN=C3C(=N2)NC4=CC=NC=C4)F
Procedure, shortened: as §1

[3] = compound: C1=CC(=CC=C1C2=NC3=C(N2)C=C(C=C3)C(=O)N)OC4=CC=C(C=C4)Cl
Procedure, shortened: as §1

[4] = compound: C1=CC2=C(C=CC(=C2)/C=C\3/C(=O)NC(=NCC4=CC=CS4)S3)N=C1
Procedure, shortened: as §1

[5] = compound: C1=CC2=NC=CN=C2C=C1/C=C/3\C(=O)NC(=O)S3
Procedure, shortened: as §1

[6] = compound: C1=CC=C(C=C1)C2=NC(=C(N2)C3=CC=NC=C3)C4=CC(=C(C=C4)Cl)O
Procedure, shortened: as §1

[7] = compound: C1=CC=C2C(=C1)C3=NNC4=CC=CC(=C43)C2=O
Procedure, shortened: as §1

[8] = compound: C1CCN(C1)C(=O)NC2=CC=CC(=C2)NC3=NC=C(C(=N3)NCCC4=CN=CN4)Br
Procedure, shortened: as §1

[9] = compound: C1CN(CCC1(CC2=CC=C(C=C2)Cl)N)C3=NC=NC4=C3C=CN4
Procedure, shortened: as §1

Measured: log2 fold change

SP1 (UniProt P08047)
inactive: erlotinib -0.055 | [1] -0.03 | [2] -0.046 | [3] 0.043 | [4] 0.006 | [5] 0.01 | [6] 0.001 | [7] -0.031 | [8] 0.047 | [9] -0.019

SLC9A3R2 (UniProt Q15599)
inactive: erlotinib -0.004 | [1] -0.022 | [2] -0.001 | [3] 0.033 | [4] -0.008 | [5] 0.003 | [6] -0.029 | [7] -0.004 | [8] -0.025 | [9] 0.02

SNX8 (UniProt Q9Y5X2)
inactive: erlotinib 0.026 | [1] 0.039 | [2] 0.023 | [3] -0.005 | [4] -0.06 | [5] 0.006 | [6] -0.01 | [7] -0.011 | [8] 0.028 | [9] 0.031

SMC3 (UniProt Q9UQE7)
inactive: erlotinib -0.02 | [1] 0.024 | [2] 0.038 | [3] 0.026 | [4] 0.009 | [5] 0.012 | [6] -0.053 | [7] -0.157 | [8] -0.005 | [9] 0.03

SNRNP27 (UniProt Q8WVK2)
inactive: erlotinib 0.026 | [1] -0.021 | [2] 0.052 | [3] 0.015 | [4] 0.015 | [5] 0.045 | [6] -0.165 | [7] -0.027 | [8] 0.061 | [9] 0.035

SOX7 isoform 2 (UniProt Q9BT81)
inactive: erlotinib 0.281 | [1] -0.063 | [2] -0.332 | [3] 0.093 | [4] -0.219 | [5] -0.037 | [6] -0.032 | [7] -0.013 | [8] 0.053 | [9] -0.064

SLC7A6 (UniProt Q92536)
inactive: erlotinib -0.051 | [1] 0.232 | [2] -0.161 | [3] 0.026 | [4] -0.001 | [5] 0.034 | [6] 0.008 | [7] -0.033 | [8] -0.004 | [9] 0.135

SMC5 (UniProt Q8IY18)
inactive: erlotinib -0.041 | [1] 0.091 | [2] -0.091 | [3] 0.04 | [4] 0.014 | [5] 0.005 | [6] -0.017 | [7] -0.141 | [8] 0.042 | [9] 0.116

SMYD2 (UniProt Q9NRG4)
inactive: erlotinib 0.011 | [1] 0.221 | [2] -0.042 | [3] -0.141 | [4] 0.119 | [5] -0.087 | [6] 0.065 | [7] 0.201 | [8] -0.154 | [9] -0.05

SNRPA1 (UniProt P09661)
inactive: erlotinib -0.055 | [1] -0.052 | [2] -0.041 | [3] 0.004 | [4] -0.056 | [5] 0.054 | [6] 0.035 | [7] -0.016 | [8] 0.029 | [9] -0.005

SMU1 (UniProt Q2TAY7)
inactive: erlotinib -0.024 | [1] 0.018 | [2] 0.002 | [3] -0.003 | [4] -0.041 | [5] 0.051 | [6] 0.011 | [7] -0.03 | [8] -0.022 | [9] 0.017

SMAD5 (UniProt Q99717)
inactive: erlotinib -0.236 | [1] -0.026 | [2] 0.274 | [3] -0.402 | [4] -0.045 | [5] 0.023 | [6] 0.094 | [7] 0.029 | [8] -0.052 | [9] -0.011

2 successive entries out of the list so far, for reference:
SNRPA1 (UniProt P09661)
inactive: erlotinib -0.055 | [1] -0.052 | [2] -0.041 | [3] 0.004 | [4] -0.056 | [5] 0.054 | [6] 0.035 | [7] -0.016 | [8] 0.029 | [9] -0.005

SMU1 (UniProt Q2TAY7)
inactive: erlotinib -0.024 | [1] 0.018 | [2] 0.002 | [3] -0.003 | [4] -0.041 | [5] 0.051 | [6] 0.011 | [7] -0.03 | [8] -0.022 | [9] 0.017

Continuation.

SON isoform 9 (UniProt P18583)
inactive: erlotinib -0.099 | [1] -0.236 | [2] -0.092 | [3] 0.205 | [4] 0.058 | [5] 0.056 | [6] -0.112 | [7] 0.02 | [8] 0.022 | [9] 0.033

SNX11 (UniProt Q9Y5W9)
inactive: erlotinib 0.034 | [1] -0.029 | [2] 0.035 | [3] 0.037 | [4] -0.048 | [5] -0.028 | [6] -0.035 | [7] -0.042 | [8] -0.079 | [9] 0.071

SMIM26, A0A096LP01
inactive: erlotinib -0.008 | [1] -0.045 | [2] 0.046 | [3] 0.009 | [4] 0.084 | [5] 0.073 | [6] -0.015 | [7] -0.002 | [8] -0.04 | [9] -0.105

SND1 (UniProt Q7KZF4)
inactive: erlotinib -0.022 | [1] -0.077 | [2] -0.64 | [3] 0.031 | [4] -0.072 | [5] -0.032 | [6] -0.151 | [7] 0.036 | [8] -0.026 | [9] -0.27

SNRPD2 (UniProt P62316)
inactive: erlotinib -0.047 | [1] -0.093 | [2] -0.039 | [3] 0 | [4] -0.069 | [5] 0.066 | [6] -0.01 | [7] -0.057 | [8] 0.032 | [9] -0.005

SMG8 isoform 2 (UniProt Q8ND04)
inactive: erlotinib 0.083 | [1] -0.059 | [2] -0.129 | [3] -0.12 | [4] -0.083 | [5] 0.018 | [6] -0.075 | [7] -0.145 | [8] -0.048 | [9] 0.085

SMPD2 (UniProt O60906)
inactive: erlotinib 0.068 | [1] -0.028 | [2] 0.013 | [3] 0.057 | [4] 0.083 | [5] 0.04 | [6] -0.053 | [7] -0.092 | [8] 0.009 | [9] 0.016

SMPD4 isoform 4 (UniProt Q9NXE4)
inactive: erlotinib 0.073 | [1] 0.064 | [2] -0.034 | [3] 0.005 | [4] 0.098 | [5] 0.158 | [6] -0.021 | [7] -0.076 | [8] 0.023 | [9] -0.011

SNRNP40 (UniProt Q96DI7)
inactive: erlotinib -0.048 | [1] -0.012 | [2] -0.111 | [3] 0.037 | [4] -0.007 | [5] 0.049 | [6] -0.024 | [7] -0.005 | [8] 0 | [9] 0.008

SMG9 (UniProt Q9H0W8)
inactive: erlotinib 0.031 | [1] 0.02 | [2] -0.115 | [3] -0.038 | [4] -0.005 | [5] 0.053 | [7] 0.071 | [8] -0.082 | [9] 0.08

SLC8B1 (UniProt Q6J4K2)
inactive: erlotinib 0.111 | [1] 0.089 | [3] 0.003 | [4] -0.039 | [5] 0.095 | [6] 0.016 | [7] 0.032

SPAG9 (UniProt O60271)
inactive: erlotinib 0.018 | [1] -0.025 | [2] 0.034 | [3] -0.016 | [4] 0.028 | [5] 0.039 | [6] -0.016 | [7] -0.012 | [8] 0.015 | [9] -0.009

SNX3 (UniProt O60493)
inactive: erlotinib 0.129 | [1] 0.074 | [2] -0.056 | [3] -0.052 | [4] 0.078 | [5] -0.058 | [6] 0.123 | [7] -0.136 | [8] 0.026 | [9] -0.068

SNF8 (UniProt Q96H20)
inactive: erlotinib -0.011 | [1] 0.001 | [2] 0.034 | [3] 0.033 | [4] -0.029 | [5] 0.02 | [6] -0.033 | [7] -0.042 | [8] 0 | [9] 0.065

SMARCA2 (UniProt P51531)
inactive: erlotinib 0.007 | [1] -0.149 | [3] -0.062 | [4] 0.069 | [5] -0.01 | [6] 0.13 | [7] -0.155

SLC9A8 isoform 2 (UniProt Q9Y2E8)
inactive: erlotinib -0.025 | [1] -0.018 | [2] 0.066 | [3] 0.012 | [4] 0.011 | [5] 0.059 | [7] -0.034 | [8] 0.044 | [9] 0.013

SP3 (UniProt Q02447)
inactive: erlotinib 0.034 | [1] -0.028 | [2] 0 | [3] 0.059 | [4] 0.003 | [5] -0.051 | [6] -0.053 | [7] -0.066 | [8] -0.065 | [9] -0.1
